In paper PMC9655074:
No constants are given. Whether binding was seen depends on the method and setting. Binding seen in cells or lysates may run through a third protein. Some results given as binding are weak or reduced against the parent protein; the word gives no strength.

Sequences of proteins named here, by UniProt entry; tags and fusion partners are left off. A change or cut given only in a name is not applied to a line headed by its entry. A line that says so, or that is headed by a name, gives the form on record, which may keep a tag or linker.
myc-tagged hnRNP-C1 (P07910, form named): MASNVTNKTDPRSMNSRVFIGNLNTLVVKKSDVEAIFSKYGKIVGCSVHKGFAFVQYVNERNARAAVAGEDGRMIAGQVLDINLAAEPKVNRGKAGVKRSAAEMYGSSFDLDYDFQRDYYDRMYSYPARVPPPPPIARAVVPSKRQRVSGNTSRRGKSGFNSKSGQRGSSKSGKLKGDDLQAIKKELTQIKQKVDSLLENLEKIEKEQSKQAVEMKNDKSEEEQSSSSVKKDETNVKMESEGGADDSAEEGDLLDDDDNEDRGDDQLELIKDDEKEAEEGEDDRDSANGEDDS
UniProt P03466: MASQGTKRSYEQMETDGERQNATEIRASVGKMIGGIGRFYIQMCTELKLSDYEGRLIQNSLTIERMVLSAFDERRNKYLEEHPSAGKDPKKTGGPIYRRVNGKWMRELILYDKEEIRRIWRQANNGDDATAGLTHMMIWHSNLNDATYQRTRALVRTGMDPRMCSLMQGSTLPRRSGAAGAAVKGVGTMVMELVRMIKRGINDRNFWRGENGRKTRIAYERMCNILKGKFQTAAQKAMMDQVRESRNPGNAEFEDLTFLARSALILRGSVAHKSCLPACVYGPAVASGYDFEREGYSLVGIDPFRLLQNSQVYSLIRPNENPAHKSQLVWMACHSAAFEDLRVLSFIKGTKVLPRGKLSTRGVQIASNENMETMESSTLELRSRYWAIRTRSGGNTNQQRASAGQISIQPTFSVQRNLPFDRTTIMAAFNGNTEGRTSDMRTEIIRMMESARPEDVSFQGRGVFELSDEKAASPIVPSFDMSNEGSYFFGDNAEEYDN
UniProt P15682: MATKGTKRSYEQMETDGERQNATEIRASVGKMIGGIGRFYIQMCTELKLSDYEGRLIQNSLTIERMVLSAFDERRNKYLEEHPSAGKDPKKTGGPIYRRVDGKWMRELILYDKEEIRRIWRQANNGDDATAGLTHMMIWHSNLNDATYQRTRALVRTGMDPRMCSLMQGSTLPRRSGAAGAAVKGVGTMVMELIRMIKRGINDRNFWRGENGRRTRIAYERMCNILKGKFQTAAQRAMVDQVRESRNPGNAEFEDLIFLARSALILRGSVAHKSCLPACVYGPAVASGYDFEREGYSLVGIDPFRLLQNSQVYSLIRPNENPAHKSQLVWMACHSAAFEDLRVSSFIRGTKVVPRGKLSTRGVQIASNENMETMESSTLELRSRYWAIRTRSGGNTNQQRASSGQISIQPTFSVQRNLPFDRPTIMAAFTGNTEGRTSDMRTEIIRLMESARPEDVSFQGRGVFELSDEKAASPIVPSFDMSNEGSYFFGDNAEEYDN

Target: myc-tagged hnRNP-C1 (UniProt P07910)
Test: co-IP

Substance	binding
NP of A/PR/8/34(H1N1), untagged, in pcDNA3 (from UniProt P03466 1-498)	binds
NP of A/WSN/1933(H1N1) virus, from infection (from UniProt P15682 1-498)	binds
